Data on one molecule can be found in patent US20200055901A1 (BETH ISRAEL DEACONESS MEDICAL CENTER, published 2020).

The experiment concerns the target T1, Soluble two-domain CD4 (UniProt P01730 26-208).
T1 construct: domain: soluble two-domain CD4; Immobilized on a CM5 chip (1,000 RU) by amine coupling; also called soluble CD4
The experiment is described as follows: SPR (Biacore 3000), single-cycle kinetics; CD4 immobilised on a CM5 chip (1,000 RU), gp140 flowed at 62.5 to 1000 nM. (In general: Surface plasmon resonance follows binding to a sensor surface in real time, without labels.)

B1: HIV-1 Env 459C wild type gp140 (459C WT gp140Fd trimer) (other)
chain: SASVGNLWVTVYYGVPVWREAKTTLFCASDAKAYDREVHNVWATHACVPTDPNPQEIVLENVTENFNMWKNDMVDQMHEDIISLWDQSLKPCVKLTPLCVTLNCTNVTSSAANVTSNVTNDANNASNANGRNVINEDMQNCSFNATTEIRDRKKEMYALFYKLDIVPLDGEKSDNRYRLINCNTSTLTQACPKVSFDPIPIHYCTPAGFAILKCNNKTFNGTGPCNNVSTVQCTHGIKPVVSTQLLLNGSLAEEDIIIRSENLTNNAKTIIVHLNESVEIVCTRPNNNTRKSIRIGPGQTFYANNDIIGDIRQAHCNISEEKWNNTLHRVWKKLVEHFPNKTTIRFDRHSGGDLEITTHSFNCGGEFFYCNTSGLFNITYNSNYTYNDTKHNGTKVITLPCRIKQIINMWQEVGRAMYAPPIAGNITCTSNITGLLLTRDGGNNSTETETFRPGGGDMRDNWRSELYKYKVVEIKPLGIAPTGAKSSVVERAKSAVGIGAVFLGFLGAAGSTMGAASITLTVQARQLLSGIVQQQSNLLKAIEAQQHLLQLTVWGIKQLQTRVLAIERYLKDQQLLGLWGCSAKLICTTAVPWNSSWSNKSETEIWNNMTWMQWDREINNYTNTIYRLLEESQNQQEKNENDLLALDKWNSLWDWFGISNWLWYIRSRIEGRGSGGYIPEAPRDGQAYVRKDGEWVLLSTFLGHHHHHH
notes: Soluble gp140-foldon trimer with His-tag, made in 293T cells; also called WT 459C; wild type 459C gp140
B1: the binding result is “binds”.
